Results taken from PubChem BioAssay (NCATS).
Some of the results follow. These are further read-outs of the screen, such as a control signal, another cell line or another target. No call is given for them. Most of these compounds were active or inconclusive in the main read-out, so they are no random draw. Words in brackets tell the shape of the fitted curve; partial curves, single points and poor fits give uncertain potencies.

test: qHTS Assay for Modulators of Human Peripheral Myelin Protein 22 (PMP22) Expression/Activity (AID 1967); settings: Cell-based PMP22 reporter, dual-color luciferase ratio; measured here: green reporter channel AC50; mouse Pmp22 promoter in mouse Schwann cells
Summary of the method: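 Mouse MSC80 Schwann cells carrying Pmp22 promoter–green click beetle luciferase plus EF-alpha–red luciferase control, dosed 24 h at 37 °C. Dual-filter luminescence, overlap-corrected; %Activity from green/red ratio normalised to untreated cells, concentration-response curves fitted.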

| SMILES | AC50 |
| --- | --- |
| CC(=O)[C@H]1CCC2C3CC=C4C[C@@H](OS(=O)(=O)O)CC[C@]4(C)C3CC[C@@]21C (some centres undefined) | 21.3 µM [rising, partial curve] |
| O=C(Cc1ccc(Cl)c(Cl)c1)N1CCCCC1CN1CCCC1 (centres undefined) | 53.6 µM [falling, partial curve, poor fit] |
| CCC(CO)NC(=O)[C@@H]1C=C2c3cccc4[nH]cc(c34)C[C@H]2N(C)C1 (some centres undefined) | 84.9 µM [falling, single point] |
| CCCCCCC(C)(C)c1ccc([C@@H]2C[C@H](O)CC[C@H]2CCCO)c(O)c1 | 33.8 µM [falling, full curve] |
| Nc1nc(OCc2ccccc2)c2[nH]cnc2n1 | 67.5 µM [falling, partial curve] |
| CCN(CC)C(=O)N[C@@H]1C[C@@H]2c3cccc4[nH]cc(c34)C[C@H]2N(C)C1 | 42.6 µM [falling, partial curve] |
| c1ccc2c(c1)[I+]c1ccccc1-2 | 0.849 µM [falling, full curve] |
| CN[C@@H](C)[C@H](O)c1ccccc1 | 33.8 µM [falling, full curve] |
| c1ccc2sc(C3(N4CCCCC4)CCCCC3)cc2c1 | 75.7 µM [falling, partial curve] |
| CCS(=O)(=O)Nc1cccc(C(=C2CCCCC2)c2cnc[nH]2)c1 | 75.7 µM [falling, single point] |
| CCCN1CCc2cccc3c2C1Cc1ccc(O)c(O)c1-3 (centres undefined) | 33.8 µM [falling, partial curve] |
| Oc1ccc2c3c1O[C@H]1c4oc5ccccc5c4C[C@@]4(O)C(C2)N(CC2CC2)CCC314 (some centres undefined) | 67.5 µM [falling, partial curve, poor fit] |
| CN1C2CCC1CC(OC(=O)c1cc(Cl)cc(Cl)c1)C2 (centres undefined) | 42.6 µM [falling, full curve] |

same assay, conditions: Cell-based PMP22 reporter, dual-color luciferase ratio; measured here: red reporter channel AC50; EF-alpha promoter control reporter in MSC80 mouse Schwann cells

| SMILES | AC50 |
| --- | --- |
| NC(=O)C1=CN(C2OC(COP(=O)(O)OP(=O)(O)OC[C@H]3O[C@@H](n4cnc5c(N)ncnc54)[C@H](OP(=O)(O)O)[C@H]3O)C(O)C2O)C=CC1 (some centres undefined) | 95.3 µM [falling, single point] |
| O=C(O)c1cc[c]([Hg][Cl])cc1 | 53.6 µM [falling, partial curve] |
| Nc1ccc(CCN2CCN(c3cccc(C(F)(F)F)c3)CC2)cc1 | 75.7 µM [falling, partial curve, poor fit] |
| NC(=O)COc1c(F)cc(SCCNS(=O)(=O)c2ccccc2)cc1F | 95.3 µM [falling, single point] |
| NC(N)=NOCC[C@H](N)C(=O)O | 95.3 µM [falling, single point] |
| CC(N)Cc1c[nH]c2ccc(OCc3cccs3)cc12 (centres undefined) | 37.9 µM [falling, partial curve] |
| O=NN(CCCl)C(=O)NCCCl | 84.9 µM [falling, single point] |
| CCCn1c(C)c(C(=O)c2ccc3ccccc3c2)c2ccccc21 | 47.8 µM [falling, partial curve, poor fit] |
| COc1ccc(CNC(=O)/C=C/c2ccc3[nH]cc(CCN(C)C)c3c2)cc1 | 84.9 µM [falling, single point] |
| CN(C)CCC=C1c2ccccc2CCc2ccccc21 | 84.9 µM [falling, single point] |
| C[Se]C[C@H](N)C(=O)O | 42.6 µM [falling, full curve] |
| CS(=N)(=O)CC[C@H](N)C(=O)O (some centres undefined) | 16.9 µM [rising, partial curve, poor fit] |
| c1ccc2c(N3CCNCC3)cccc2c1 | 42.6 µM [falling, full curve] |
| NCCCCN=C(N)N | 95.3 µM [falling, single point] |
| C[N+]1(C)CCN(c2ccccc2)CC1 | 30.1 µM [falling, single point] |
| CC(=O)[C@H]1CC[C@H]2[C@@H]3CCC4=CC(=O)CC[C@]4(C)[C@H]3CC[C@]12C | 84.9 µM [falling, single point] |
| C[C@]12CCC(=O)C=C1CC[C@@H]1[C@@H]2CC[C@]2(C)C(=O)CC[C@@H]12 | 84.9 µM [falling, single point] |
| CC(=O)[C@H]1CCC2C3CC=C4C[C@@H](OS(=O)(=O)O)CC[C@]4(C)C3CC[C@@]21C (some centres undefined) | 19 µM [rising, partial curve, poor fit] |
| Nc1nc2[nH]c(=O)cnc2c(=O)[nH]1 | 84.9 µM [falling, single point] |
| CCCN(CCC)[C@@H]1CCc2cccc(O)c2C1 | 10.7 µM [rising, partial curve] |

| SMILES | AC50 |
| --- | --- |
| NCC(CP(=O)(O)O)c1ccc(Cl)cc1 (centres undefined) | 84.9 µM [falling, single point] |
| CN(C(=O)Cc1ccc(Cl)c(Cl)c1)C(CN1CCCC1)c1cccc(OCC(=O)O)c1 (centres undefined) | 95.3 µM [falling, single point] |
| O=C(Cc1ccc(Cl)c(Cl)c1)N1CCCCC1CN1CCCC1 (centres undefined) | 67.5 µM [falling, partial curve, poor fit] |
| CCC(CO)NC(=O)[C@@H]1C=C2c3cccc4[nH]cc(c34)C[C@H]2N(C)C1 (some centres undefined) | 84.9 µM [falling, single point] |
| NC(CCCP(=O)(O)O)C(=O)O (centres undefined) | 15.1 µM [rising, partial curve, poor fit] |
| CCCCCCC(C)(C)c1ccc([C@@H]2C[C@H](O)CC[C@H]2CCCO)c(O)c1 | 30.1 µM [falling, full curve] |
| CC(C)COC(=O)OCN1C(=O)CN(CCN2CC(=O)N(COC(=O)OCC(C)C)C(=O)C2)CC1=O | 75.7 µM [falling, partial curve, poor fit] |
| NNC(=O)c1ccc(O)cc1 | 0.379 µM [falling, full curve] |
| Nc1nc(OCc2ccccc2)c2[nH]cnc2n1 | 42.6 µM [falling, partial curve] |
| Cc1nc2n(c(=O)c1CCN1CCC(c3noc4cc(F)ccc34)CC1)CCCC2 | 75.7 µM [falling, single point] |
| Cc1c(OCC(F)(F)F)ccnc1CS(=O)c1nc2ccccc2[nH]1 (centres undefined) | 95.3 µM [falling, single point] |
| CCN(CC)C(=O)N[C@@H]1C[C@@H]2c3cccc4[nH]cc(c34)C[C@H]2N(C)C1 | 84.9 µM [falling, single point] |
| c1ccc2c(c1)[I+]c1ccccc1-2 | 0.213 µM [falling, full curve] |
| CN[C@@H](C)[C@H](O)c1ccccc1 | 26.9 µM [falling, full curve] |
| c1ccc2sc(C3(N4CCCCC4)CCCCC3)cc2c1 | 84.9 µM [falling, single point] |
| CCS(=O)(=O)Nc1cccc(C(=C2CCCCC2)c2cnc[nH]2)c1 | 84.9 µM [falling, single point] |
| CCCN1CCc2cccc3c2C1Cc1ccc(O)c(O)c1-3 (centres undefined) | 42.6 µM [falling, partial curve] |
| Oc1ccc2c3c1O[C@H]1c4oc5ccccc5c4C[C@@]4(O)C(C2)N(CC2CC2)CCC314 (some centres undefined) | 84.9 µM [falling, partial curve, poor fit] |
| CN1C2CCC1CC(OC(=O)c1cc(Cl)cc(Cl)c1)C2 (centres undefined) | 60.1 µM [falling, partial curve] |
